Here are results for 1 substance from publication PMC8102003.

Chains of the proteins cited; added tags and fusions are not shown. Lines headed by an entry give the natural chain unless they say otherwise; changes in a name come on top.
UniProt Q7Z2W4: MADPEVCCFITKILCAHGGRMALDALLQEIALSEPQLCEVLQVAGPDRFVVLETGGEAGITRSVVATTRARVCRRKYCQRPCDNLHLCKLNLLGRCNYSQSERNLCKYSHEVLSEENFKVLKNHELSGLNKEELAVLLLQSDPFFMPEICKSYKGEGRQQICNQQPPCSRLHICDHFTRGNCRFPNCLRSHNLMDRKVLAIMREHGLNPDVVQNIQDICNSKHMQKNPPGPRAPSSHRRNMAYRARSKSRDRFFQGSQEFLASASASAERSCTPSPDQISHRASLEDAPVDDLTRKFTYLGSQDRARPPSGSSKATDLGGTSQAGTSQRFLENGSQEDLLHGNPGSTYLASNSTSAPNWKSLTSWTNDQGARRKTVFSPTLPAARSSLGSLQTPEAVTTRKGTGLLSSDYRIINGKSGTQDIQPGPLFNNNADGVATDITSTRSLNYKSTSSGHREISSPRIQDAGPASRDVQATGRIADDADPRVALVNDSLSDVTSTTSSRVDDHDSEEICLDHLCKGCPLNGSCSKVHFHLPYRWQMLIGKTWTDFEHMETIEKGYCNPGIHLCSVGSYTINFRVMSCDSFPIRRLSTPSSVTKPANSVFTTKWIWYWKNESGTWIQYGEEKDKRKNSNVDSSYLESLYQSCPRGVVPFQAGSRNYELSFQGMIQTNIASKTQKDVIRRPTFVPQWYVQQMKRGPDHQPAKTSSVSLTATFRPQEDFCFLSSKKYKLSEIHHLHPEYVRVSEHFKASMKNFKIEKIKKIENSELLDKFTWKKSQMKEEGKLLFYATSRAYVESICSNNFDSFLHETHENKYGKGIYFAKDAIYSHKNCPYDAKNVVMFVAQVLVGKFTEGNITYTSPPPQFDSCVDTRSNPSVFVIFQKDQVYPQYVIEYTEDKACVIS
UniProt Q14258: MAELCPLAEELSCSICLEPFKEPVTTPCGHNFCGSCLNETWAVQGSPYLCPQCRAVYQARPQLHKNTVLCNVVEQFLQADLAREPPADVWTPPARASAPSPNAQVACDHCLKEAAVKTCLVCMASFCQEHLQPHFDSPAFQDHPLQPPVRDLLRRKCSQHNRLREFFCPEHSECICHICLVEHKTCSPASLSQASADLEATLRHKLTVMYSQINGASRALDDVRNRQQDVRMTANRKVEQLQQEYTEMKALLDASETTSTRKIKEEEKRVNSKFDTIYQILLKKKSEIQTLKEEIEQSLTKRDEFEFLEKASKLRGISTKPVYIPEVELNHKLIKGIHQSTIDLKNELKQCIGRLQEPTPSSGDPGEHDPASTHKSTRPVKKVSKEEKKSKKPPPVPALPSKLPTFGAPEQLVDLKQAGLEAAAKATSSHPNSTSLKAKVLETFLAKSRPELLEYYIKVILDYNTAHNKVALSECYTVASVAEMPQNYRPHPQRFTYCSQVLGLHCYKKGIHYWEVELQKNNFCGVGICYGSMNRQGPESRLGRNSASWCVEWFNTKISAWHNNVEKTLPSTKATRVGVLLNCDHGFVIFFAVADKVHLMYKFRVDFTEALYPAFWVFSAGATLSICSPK

Experiment [1] addresses human ZAP-L-HA (full-length long isoform, wild type) (human) (UniProt Q7Z2W4). As to the kind of experiment: co-IP; HEK293T ZAP-/- TRIM25-/- cells co-transfected with HA-tagged ZAP (WT, ΔZnF or RNA^null) and untagged TRIM25 or TRIM25 7KA; anti-HA precipitation; western blot for overexpressed ZAP and TRIM25 (Fig 5G). In general terms: Immunoblotting shows a protein as a band on a membrane.

In experiment [2] the target is ZAP RNA^null (human ZAP-L R74A, R75A, K76A)-3xHA (human) (UniProt Q7Z2W4). Described as above.

Results are given in words; binding and its absence hold for the method and conditions named. Binding seen in cells or lysates may run through a third protein. A result given as binding can be weak or reduced; the word gives no strength.

Take “TRIM25 7KA (TRIM25 RNA binding mutant, lysine cluster at 381–391 replaced by alanines) (from UniProt Q14258)”: the binding result in experiment [1] and in experiment [2] was “binds” each time.
